The text below walks through data of patent US6403087.

By UniProt entry, the sequences of proteins in these tests, tags left out. Where a name states a change or a piece, a line headed by the entry shows the natural chain unless it says otherwise. Residues count along the entry.
UniProt P09225: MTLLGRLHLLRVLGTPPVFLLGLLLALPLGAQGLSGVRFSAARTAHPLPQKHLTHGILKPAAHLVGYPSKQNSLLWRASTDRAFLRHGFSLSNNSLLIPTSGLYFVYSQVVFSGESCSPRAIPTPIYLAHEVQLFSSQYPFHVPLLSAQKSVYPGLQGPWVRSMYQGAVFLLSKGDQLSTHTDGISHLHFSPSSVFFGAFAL
UniProt P41155: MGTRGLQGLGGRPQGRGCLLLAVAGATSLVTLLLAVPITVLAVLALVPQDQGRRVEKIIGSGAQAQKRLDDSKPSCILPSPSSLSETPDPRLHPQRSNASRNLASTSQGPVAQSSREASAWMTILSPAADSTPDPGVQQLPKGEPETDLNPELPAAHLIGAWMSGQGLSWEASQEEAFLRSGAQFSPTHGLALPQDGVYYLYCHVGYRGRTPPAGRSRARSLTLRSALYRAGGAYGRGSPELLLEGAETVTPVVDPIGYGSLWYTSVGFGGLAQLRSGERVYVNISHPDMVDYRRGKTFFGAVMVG
UniProt P50284, residues 31-223: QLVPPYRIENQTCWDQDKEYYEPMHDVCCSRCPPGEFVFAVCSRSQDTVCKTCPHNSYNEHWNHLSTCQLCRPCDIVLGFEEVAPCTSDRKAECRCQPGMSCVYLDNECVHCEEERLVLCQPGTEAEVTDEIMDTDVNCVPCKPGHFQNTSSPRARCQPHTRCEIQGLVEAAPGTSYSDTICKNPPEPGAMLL

The assay deals with soluble murine LT-α/β ligand (mLT-α/β) (mouse) (UniProt P09225+P41155). Nature of the assay: told of the WEHI 164 cytotoxicity assay, fusion protein at 10 µg/ml.

No constants are given. Whether binding was seen depends on the method and setting. Some results given as binding are weak or reduced against the parent protein; the word gives no strength.

Take “soluble murine LT-β receptor coupled to the human IgG1 Fc domain (mLT-β-R-Fc) (from UniProt P50284 31-223) (Fc fusion)”: the binding result is “binds”.
